For the experiment, the target named is ATI1-N, N-terminal region of ATG8 Interacting Protein 1 (M1-E180) (Arabidopsis thaliana). Kind of experiment: NMR titration.

These are yes or no findings as the source states them, for the method shown. A result given as binding can be weak or reduced; the word gives no strength.

B1: ATG8f, processed form (1-117), recombinant (natural protein, Arabidopsis thaliana, UniProt Q8VYK7 1-117, looked up)
chain: MAKSSFKQEHDLEKRRAEAARIREKYPDRIPVIVEKAEKSDIPTIDKKKYLVPADLTVGQFVYVIRKRIKLSAEKAIFIFVDNVLPPAGALMSSVYEEKKDDDGFLYVTYSGENTFG
Consider B1, for which the binding result is reported as “binds”.

The values above are taken from paper doi:10.1101/406538 (bioRxiv, 2018).
